Literature values, collected in patent publication US20230302000A1, “COMBINATION DRUG TREATMENT TO INCREASE NEUROGENESIS FOR NEUROLOGICAL DISORDERS” (priority 2020, published 2023).
At least one compound was matched to its structure with a doubt left.

System: NSCs
Conditions: previous work

## CN1CC[C@@]2(C)c3cc(OC(=O)Nc4ccccc4)ccc3N(C)[C@@H]12 [phenserine]
  effect on APP-induced glial differentiation of NSCs: suppresses
